In test [1] the target is Activating enhancer-binding protein-2α (human (endogenous in CNE2)) (UniProt P05549). Briefly: co-IP; nuclear extract proteins (800 μg) of CNE2 cells incubated with rabbit polyclonal antibody to AP-2α or p300 overnight at 4°C; protein A/G plus agarose; washed 3 times with RIPA buffer; Western blot with p300 or AP-2α antibody. On the technique in general: Immunoblotting shows a protein as a band on a membrane.

Sequences of proteins named here, by UniProt entry; tags and fusion partners are left off.
UniProt P05549: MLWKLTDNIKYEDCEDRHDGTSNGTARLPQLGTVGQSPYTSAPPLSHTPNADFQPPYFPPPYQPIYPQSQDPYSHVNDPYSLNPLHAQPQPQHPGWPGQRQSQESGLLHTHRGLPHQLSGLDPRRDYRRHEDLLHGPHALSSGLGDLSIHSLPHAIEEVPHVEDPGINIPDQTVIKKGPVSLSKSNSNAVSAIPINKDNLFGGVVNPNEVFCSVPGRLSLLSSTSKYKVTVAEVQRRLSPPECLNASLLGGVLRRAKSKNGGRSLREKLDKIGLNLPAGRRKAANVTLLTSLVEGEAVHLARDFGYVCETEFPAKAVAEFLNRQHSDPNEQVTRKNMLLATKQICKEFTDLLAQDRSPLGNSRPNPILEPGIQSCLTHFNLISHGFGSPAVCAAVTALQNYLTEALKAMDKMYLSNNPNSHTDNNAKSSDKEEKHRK
UniProt Q09472: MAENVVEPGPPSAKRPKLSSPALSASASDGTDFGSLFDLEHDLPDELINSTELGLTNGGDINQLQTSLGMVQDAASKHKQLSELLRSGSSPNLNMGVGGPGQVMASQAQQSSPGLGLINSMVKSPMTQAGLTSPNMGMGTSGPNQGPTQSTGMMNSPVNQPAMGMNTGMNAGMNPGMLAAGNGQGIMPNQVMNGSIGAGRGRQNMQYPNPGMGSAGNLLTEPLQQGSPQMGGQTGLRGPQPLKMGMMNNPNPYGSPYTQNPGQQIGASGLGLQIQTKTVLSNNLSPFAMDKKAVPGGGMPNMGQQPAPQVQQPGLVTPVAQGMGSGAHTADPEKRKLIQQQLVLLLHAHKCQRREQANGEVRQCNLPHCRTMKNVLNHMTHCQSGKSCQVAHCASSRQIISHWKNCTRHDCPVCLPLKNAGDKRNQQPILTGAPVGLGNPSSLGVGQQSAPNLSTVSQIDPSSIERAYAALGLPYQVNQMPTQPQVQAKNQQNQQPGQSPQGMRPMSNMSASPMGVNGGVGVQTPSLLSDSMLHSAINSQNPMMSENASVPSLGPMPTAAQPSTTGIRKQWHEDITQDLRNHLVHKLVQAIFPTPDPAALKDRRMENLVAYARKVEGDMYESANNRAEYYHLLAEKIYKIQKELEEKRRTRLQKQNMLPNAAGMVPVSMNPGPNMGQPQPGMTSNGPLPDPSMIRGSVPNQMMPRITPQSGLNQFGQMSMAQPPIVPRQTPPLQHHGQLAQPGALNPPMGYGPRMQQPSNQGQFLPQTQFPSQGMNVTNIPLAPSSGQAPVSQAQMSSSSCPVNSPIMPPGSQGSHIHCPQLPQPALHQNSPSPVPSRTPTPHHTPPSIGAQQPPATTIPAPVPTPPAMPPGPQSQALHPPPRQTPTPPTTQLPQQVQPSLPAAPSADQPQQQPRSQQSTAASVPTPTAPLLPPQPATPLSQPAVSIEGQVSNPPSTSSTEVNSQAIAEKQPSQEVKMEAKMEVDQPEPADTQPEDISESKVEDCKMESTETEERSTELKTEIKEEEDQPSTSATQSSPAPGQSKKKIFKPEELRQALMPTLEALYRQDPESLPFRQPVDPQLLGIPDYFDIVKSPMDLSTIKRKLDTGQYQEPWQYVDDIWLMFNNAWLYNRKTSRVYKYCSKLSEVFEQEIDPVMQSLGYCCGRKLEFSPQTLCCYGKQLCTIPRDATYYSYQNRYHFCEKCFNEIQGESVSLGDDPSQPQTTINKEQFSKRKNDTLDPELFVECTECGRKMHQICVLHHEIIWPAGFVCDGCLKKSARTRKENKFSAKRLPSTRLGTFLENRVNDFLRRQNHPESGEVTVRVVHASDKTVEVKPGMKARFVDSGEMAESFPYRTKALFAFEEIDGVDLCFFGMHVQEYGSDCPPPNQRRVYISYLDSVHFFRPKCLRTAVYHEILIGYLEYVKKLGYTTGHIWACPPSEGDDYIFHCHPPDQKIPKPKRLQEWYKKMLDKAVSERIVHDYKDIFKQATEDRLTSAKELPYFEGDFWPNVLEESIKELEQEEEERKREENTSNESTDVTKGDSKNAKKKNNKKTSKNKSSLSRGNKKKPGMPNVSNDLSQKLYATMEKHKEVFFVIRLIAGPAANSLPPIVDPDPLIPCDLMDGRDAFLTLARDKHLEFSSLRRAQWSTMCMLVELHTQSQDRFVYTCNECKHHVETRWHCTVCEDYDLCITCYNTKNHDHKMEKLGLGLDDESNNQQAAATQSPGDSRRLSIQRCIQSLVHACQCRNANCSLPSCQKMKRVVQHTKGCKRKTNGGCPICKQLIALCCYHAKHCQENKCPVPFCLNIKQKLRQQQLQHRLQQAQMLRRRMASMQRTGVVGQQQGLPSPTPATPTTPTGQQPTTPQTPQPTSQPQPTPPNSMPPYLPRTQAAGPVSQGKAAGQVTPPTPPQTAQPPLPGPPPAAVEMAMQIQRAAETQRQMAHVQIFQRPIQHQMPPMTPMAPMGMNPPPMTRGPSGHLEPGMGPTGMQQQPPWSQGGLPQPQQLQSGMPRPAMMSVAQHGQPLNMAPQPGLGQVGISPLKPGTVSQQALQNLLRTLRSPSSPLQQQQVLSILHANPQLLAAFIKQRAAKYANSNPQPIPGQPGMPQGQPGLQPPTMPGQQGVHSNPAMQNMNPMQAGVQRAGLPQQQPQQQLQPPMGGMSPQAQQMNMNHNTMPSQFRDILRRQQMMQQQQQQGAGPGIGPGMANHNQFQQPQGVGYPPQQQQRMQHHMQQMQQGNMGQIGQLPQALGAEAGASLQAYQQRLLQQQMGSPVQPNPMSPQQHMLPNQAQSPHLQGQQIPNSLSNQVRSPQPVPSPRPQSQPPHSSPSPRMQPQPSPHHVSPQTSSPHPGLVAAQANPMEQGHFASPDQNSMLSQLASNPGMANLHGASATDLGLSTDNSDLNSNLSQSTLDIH

Test [2] has as its target p300 (human (endogenous in CNE2)) (UniProt Q09472). The test is described as above.

These are yes or no findings as the source states them, for the method shown. Binding seen in cells or lysates may run through a third protein. Some results given as binding are weak or reduced against the parent protein; the word gives no strength.

With p300 (from UniProt Q09472 1-2414), the binding entry in test [1] was “binds”. Turning to “Activating enhancer-binding protein-2α (from UniProt P05549 1-437)”, the binding entry in test [2] was “binds”.
